The target of this assay is T1, 6His-PfJ (4.1R binding region of Plasmodium falciparum erythrocyte binding antigen-181, aa 945-1097) (P. falciparum) (UniProt Q8I2B4).
T1 sequence: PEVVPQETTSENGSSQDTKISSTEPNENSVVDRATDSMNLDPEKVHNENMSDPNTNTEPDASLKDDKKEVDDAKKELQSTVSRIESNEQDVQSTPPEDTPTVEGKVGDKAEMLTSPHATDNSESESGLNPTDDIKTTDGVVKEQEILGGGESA
In words: far-Western, overlay or dot blot; ~5 μg of GST, GST-4.1R domains and 6His-PfJ spotted on nitrocellulose, blocked with 5% BSA in TBS pH 7.5, overlaid with 0.5-1 μg purified 4.1R or GST-4.1R domain for 2 hrs, fixed with 0.5% formaldehyde, detected with rabbit anti-4.1R antibody; both purified.

These are yes or no findings as the source states them, for the method shown. A result given as binding can be weak or reduced; the word gives no strength. Sequences can lack the tags named with a protein.

Results on one substance are retold here after article PMC1635724.

As for “native human erythrocyte membrane protein 4.1 (4.1R)”, the binding result was “binds”.
